According to publication PMC8436915:
These are yes or no findings as the source states them, for the method shown. In cells and extracts the contact can be indirect. Some entries that bind do so weakly or less than the wild type.

Amino acid sequences for entries named in this document (tags omitted).
UniProt P06493: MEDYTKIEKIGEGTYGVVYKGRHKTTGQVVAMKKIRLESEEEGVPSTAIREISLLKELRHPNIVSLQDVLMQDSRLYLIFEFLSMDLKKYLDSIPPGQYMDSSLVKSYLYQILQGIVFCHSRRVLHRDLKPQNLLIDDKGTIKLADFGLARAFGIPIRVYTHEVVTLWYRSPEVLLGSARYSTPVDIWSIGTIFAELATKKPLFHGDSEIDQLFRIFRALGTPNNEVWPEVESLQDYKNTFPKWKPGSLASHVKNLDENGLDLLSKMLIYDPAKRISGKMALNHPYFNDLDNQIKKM

Molecular target: CDK1 (human) (UniProt P06493)
Assay: co-IP; in SK-HEP-1 cells; detection by Western blot; bait, antibodies and buffers not told

binding: binds
Substance: DEP domain containing 1B (DEPDC1B) (from UniProt Q8WUY9-1 1-529)
